Results: US11771737B2, “Treating or preventing adverse liver conditions” (priority 2017, dated 2023)
At least one structure is not confirmed: it was looked up by name or label, or the drawing left a doubt.

Experiments:
RIL-175 hepatoma cells = test: Orthotopic RIL-175 hepatoma model; format: in vivo, B6(Cg)-Tyr^c-2J/J mice
HNSCC [1] = test: Intratumoral immune cells in HNSCC by immune-fluorescence microscopy; settings: CD33/IL4Rα, CD4/FoxP3, CD8/CD69 intratumoral concentration
metastatic melanoma = metastatic melanoma patient; cited from earlier work
HNSCC [2] = settings: patients with HNSCC; cited from earlier work

With `CN1CC(=O)N2[C@H](c3ccc4c(c3)OCO4)c3[nH]c4ccccc4c3C[C@@H]2C1=O` [tadalafil] the “tumor growth (BLI)” value (RIL-175 hepatoma cells; 2 mg/kg daily i.p., 21 days) was “suppression of tumor growth”, the “MDSC suppressor function and number” value (RIL-175 hepatoma cells; intrahepatic tumoral MDSCs, flow cytometry) was “reversing MDSC suppressor function and number” and the tumor microenvironment (HNSCC [1]) was “modulates tumor microenvironment and depletes it of cells with immune suppressor function”. For the same compound, the “disease status on PET-CT scans” value (metastatic melanoma) was “stable disease” and the tumor specific immunity (HNSCC [2]) was “augments tumor specific immunity”.
